Laboratory results: PubChem BioAssay AID1508600 (Functional Genomics Laboratory (NCATS/FGL), 2020)
The campaign covered roughly 53,000 sequences. About 3,700 (7%) were called active.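 Rule for the calls: active = gene knockdowns whose robust z-score for IL-1 alpha signal is at least 2 or at most -2, so actives lie on both sides; inactive = the rest.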 The list shows a part of the results.

Assay: Components of the Cytosolic LPS Sensing Pathway: Gene Identification via Genome-wide siRNA Screen;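 note: robust z of the log signal after scaling to non-targeting control siRNA wells of the plate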
Conditions: RAW264.7 macrophages, IL-1a HTRF, actives lie on both sides, screened at 100 nM (by protocol), cells primed 5 h with Pam3CSK4 first
Summary of the method: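 Read-out: IL-1a HTRF on supernatant, divided by plate negative-control median ×100, log-transformed and converted to robust z-score. Cells were RAW264.7 given 100 nM siRNA, Pam3CSK4-primed 5 hours, then LipidA-transfected 24 hour.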

Sequence	z-score
GCGAAACUACCGACAGUGUTT against Irf2	inactive: -1.16
GGAAAAUCUUUACAGAGCGTT against Zfp617	inactive: 0.358
GGUGCCAUACCAUUUCCUATT against Olfr351	inactive: -0.0916
GGAAAUUCUUUGGUGAAAUTT against Galnt17	inactive: -0.273
GCUGAUCAAAUUGGCCUGUTT against Olfr984	inactive: -0.703
GGUUUUUGUUGUAAUAGGCTT against Olfr915	inactive: -0.758
GGACCACAACACAAAUCUGTT against Fasl	inactive: 1.49
GCCAACAUGAGCUCAACAATT against Foxs1	inactive: -0.611
CGACCUCCAGUAAUAACCUTT against Olfr310	inactive: -0.746
GGGUGUCUCCAUUUUUCCUTT against Wdcp	inactive: 0.534
GGAGUUUCAGCAGUCGUGATT against Prkrip1	inactive: -0.94
UCUUCUAUGGUUCAGGUGCTT against Olfr1537	inactive: 0.617
GGCUGAUUAGAAUACCUCCTT against Adra2b	inactive: 0.352
GGCUGUCAUGAUCAGUCAUTT against Vmn1r14	inactive: -1.35
GGUCCUUGAGCUAAGGACATT against Olfm2	inactive: -0.995
GGAUUUAGGCUAGACCGGGTT against Pik3r6	inactive: -0.505
GCUACAGAACCUGCUCUACTT against Thoc5	inactive: 0.391
GGAACCUCUCAAUUUUGCGTT against Pik3ip1	inactive: 0.659
GGAUAGAGAGAGGUAGCAUTT against Lrrc15	inactive: -0.714
CCUUAUGGAGCAAACAACATT against Fam221b	inactive: -0.562
CCUCCCUAAGGUUAUAGACTT against Acot5	inactive: -1.47
GCAGCUCUCAACAGUUAUATT against Rpf1	inactive: 1.11

Sequence	z-score
GGGUUGUGCAUUUUAUUGGTT against Tecrl	inactive: -0.733
GAUGGUGUCUAGUGAGAGCTT against Oxct2b	active: -2.01
GUUACAAAACAUCGGUGGGTT against Vsig2	inactive: 1.06
GGUUUUAAAGCAUCUUCGUTT against Pard6g	inactive: -0.284
CGGCAUGGUGACCUAAUGCTT against Trmt12	inactive: -1.34
GGUGUUGAAAGUCAUUGUGTT against Med27	inactive: -0.196
GGAGGAAGUUGUAUAUUUUTT against Psmd10	inactive: 0.539
GCUUCCUACGGUGUGUCAATT against Hnrnpu	active: -2.43
GCGAACAUCCCAACAACAGTT against Igfbp4	inactive: 1.12
GGAAGUGUGAACUUCAUCATT against Zdhhc6	active: 2.78
GCUACUGAGUUAUAGAAAGTT against Olfr1316	inactive: 1.04
GCUGAAGAUGGAGCCUUGUTT against Krt88	inactive: -1.33
GGAAAAACGUGGUGAACUATT against Zeb2	inactive: 0.7
GGAUGUUUUGGAGCCCUAGTT against Scml4	inactive: -0.125
GAUCCUGCAUCUUUAGUGUTT against Ascl1	inactive: -0.0831
GCCGAUUCAAUACUGUGACTT against Rnf149	inactive: -0.649
GGAAGAUGGUUUGUAGAUATT against Ddx56	inactive: -1.92
GGCAUUCUGAGGAGAGCAATT against Tfap2d	inactive: 0.00663
GGGUGAGUGUCGGAACUUUTT against Sema6b	inactive: -0.157
GGGAUUGGCACUUUCCAAGTT against Akap7	inactive: 1.75
CCCUUGCUUGCUAAGAUUUTT against Scyl3	inactive: -0.684
CGUUAACUCUCGGACGAUCTT against Fitm1	inactive: 0.576

Sequence	z-score
GGAGUGAAAUUUACUGGGUTT against Hdgfl3	inactive: 1.28
GGUUUUAUCCCUGUUUCCUTT against Naaa	inactive: -0.115
GUUGGUAAAGGUCCUUGCCTT against Gtf2h5	inactive: 0.33
GGAGUCAACUUGUGAGGGUTT against Lrp8	inactive: -0.48
GGGUUCAAGAUAUCAAGUATT against 4933434E20Rik	inactive: 1.23
GCACCAUUUGAGUUUUUCUTT against Vmn1r8	inactive: -0.578
CCCUUGCUUUCAUGAUUUATT against Trim30b	inactive: 0.714
GGAGAGGUUCCAUGUGACUTT against Chchd10	inactive: -1.08
GGCCUGUAUUCUGCUCUGUTT against Olfr341	inactive: 0.0576
GCAGCUGUCCGUAUAUCUUTT against Uxt	inactive: 0.377
GGUUUUGGAUACCAAAAACTT against Cript	inactive: 0.106
CCCUGGACUAAGGAUCACCTT against Cops5	inactive: -1.2
GCUUAAUGCUAGGUUACAATT against Kng2	inactive: -1.2
GCCCACUUUGUUUAGUUAATT against Lancl1	inactive: 0.889
GCACAAUAAUAAUGACACUTT against AI597479	active: 2.76
GGAGAAACGGAAGGAAAAGTT against Rpl13a	inactive: 0.656
GCAUCGUGGAACCUAAAGATT against Rps3	inactive: -0.641
GCAAUUGACCAGAUUUGUGTT against Npr1	inactive: -0.384
GGCAAGGAGAAAGGAUUGUTT against Clec10a	inactive: -0.374
GGCUGAAGUAAGGUUUCACTT against Mrpl58	inactive: 0.354
CGAUACCUUCGCCAAAAAGTT against Tbc1d1	inactive: -0.47
GGGCUCCAAUUUGCUACCATT against Grp	inactive: 0.342

Sequence	z-score
GGAUGAAGAUGCUGUCAGCTT against Arhgef3	inactive: -1.77
GGAAAGAAACUUUCUCUUUTT against Cdkn2d	inactive: -0.374
GGUCAACCAGAAACUUUACTT against Acvr1	inactive: -1.36
GGUGAUGCGCCUGAAGGAUTT against Ntng2	inactive: -0.668
GGUUGUGGCUGCUACUAUUTT against Pira1	inactive: 1.94
GGGCCUAAAUGUGAAACACTT against Src	inactive: -0.222
GGUAUGGAGUGAAGUGACCTT against Mmp11	inactive: -1.37
GGGCAACUGUACGUACCAUTT against Cd93	inactive: 0.0137
GGUCACAGAUAAGAAUGACTT against Cd96	inactive: 0.692
GGCUUCUACCUUCGAGACUTT against Carns1	active: -2.3
GCAUCAACUCCUGAGCUCUTT against Cenpx	inactive: -1.5
GCAAAUGUCUCUUCAGUGATT against Olfr885	inactive: 0.996
GGCAGAGGCUGACUUCUACTT against Kctd11	inactive: 0.698
GCAGUGUGAUGGGACUGUATT against Aga	inactive: 0.08
CGUAAGAUUGACUCUAGUATT against Prl6a1	inactive: 0.326
GCUGGUCUUUCAAGUCAAGTT against Stat5b	active: 2.62
GCCGUUUAAACAGUUCAACTT against Tifa	inactive: 0.624
CGGCCGUAUGAAGAAGAUATT against Phactr1	inactive: -0.694
CGACGGAGUCAGUUAAAACTT against Psmd12	inactive: -0.204
GCUGCCUCCUUAGGUGUUATT against A930018P22Rik	inactive: 0.294
GGAGAGAUGGAUGGAAAAATT against Klk1b7-ps	inactive: -0.925
GCUGAUUAAUGAAGAAGCUTT against Kpna6	inactive: 1.9

As a short view, part of the list above:
Sequence	z-score
GCCAACAUGAGCUCAACAATT against Foxs1	inactive: -0.611
CGACCUCCAGUAAUAACCUTT against Olfr310	inactive: -0.746
GGGUGUCUCCAUUUUUCCUTT against Wdcp	inactive: 0.534
GGAGUUUCAGCAGUCGUGATT against Prkrip1	inactive: -0.94

Additional entries:

Sequence	z-score
GGAAGAAGCAGAAGAACAUTT against Rpl12	active: 2.55
CCAAGGGUUAAGUCUUCAUTT against Zranb1	inactive: 0.738
GGAUUUUCCAUUUCUUCACTT against Tubgcp4	inactive: -0.924
CCGUGAUGGACAUCUAUUCTT against Kctd18	inactive: 0.256
GCUACAGUCGUUGUUUGAATT against Serpinf1	inactive: 1.53
GGAUUCGUUCAGCUAAGGGTT against Olfr1023	inactive: 1.29
GGUCUUAGCUGUCCUCAAGTT against Olfr273	inactive: -0.811
CCUUCCUGUUGUCAUGAGATT against Eipr1	inactive: -0.868
GGCUAUGUUUCAGAAUAUGTT against Sohlh2	inactive: -0.541
GGACUUAAUCAACCUAACCTT against Sgms1	inactive: -1.44
GCAACAUAUGGUAUACUGUTT against Mdm4	inactive: 1.41
GGAAGGGCCACUUAAUGCUTT against Zzz3	inactive: 1.12
GGAGCAUCCCUACGAUGCATT against Atp6v1f	inactive: 0.349
GGUGAACUGUUCUUCCUCATT against Icam1	inactive: -0.811
GCUGCUUAGAUACAUUUUUTT against Ddias	inactive: 0.584
GGUUAUCCUGUUACAGUACTT against Spata2l	inactive: 0.35
CCUUGAAAUUCGUUAUCAUTT against Tmc7	inactive: -0.225
CGCGAUUGCACUCUUAUUATT against 2610001J05Rik	inactive: 0.958
GGCACUAAUUUAGACAAAGTT against Ccdc66	inactive: 1.65
